# Assay results reported in publication PMC3803144.
# Sequences of proteins named here, by UniProt entry; tags and fusion partners are left off.
# UniProt O60260: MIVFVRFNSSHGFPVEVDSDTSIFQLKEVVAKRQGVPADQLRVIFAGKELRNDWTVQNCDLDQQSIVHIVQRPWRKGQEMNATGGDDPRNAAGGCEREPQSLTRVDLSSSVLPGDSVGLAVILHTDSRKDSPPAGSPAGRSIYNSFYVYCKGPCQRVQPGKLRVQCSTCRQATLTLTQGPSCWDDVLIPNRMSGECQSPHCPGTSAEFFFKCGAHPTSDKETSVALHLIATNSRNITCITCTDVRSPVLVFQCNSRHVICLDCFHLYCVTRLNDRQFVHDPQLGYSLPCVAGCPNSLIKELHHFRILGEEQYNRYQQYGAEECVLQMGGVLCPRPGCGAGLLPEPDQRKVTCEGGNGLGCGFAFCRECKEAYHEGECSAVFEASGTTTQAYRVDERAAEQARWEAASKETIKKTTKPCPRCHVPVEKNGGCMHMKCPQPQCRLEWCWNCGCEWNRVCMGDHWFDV
# UniProt Q9JK66: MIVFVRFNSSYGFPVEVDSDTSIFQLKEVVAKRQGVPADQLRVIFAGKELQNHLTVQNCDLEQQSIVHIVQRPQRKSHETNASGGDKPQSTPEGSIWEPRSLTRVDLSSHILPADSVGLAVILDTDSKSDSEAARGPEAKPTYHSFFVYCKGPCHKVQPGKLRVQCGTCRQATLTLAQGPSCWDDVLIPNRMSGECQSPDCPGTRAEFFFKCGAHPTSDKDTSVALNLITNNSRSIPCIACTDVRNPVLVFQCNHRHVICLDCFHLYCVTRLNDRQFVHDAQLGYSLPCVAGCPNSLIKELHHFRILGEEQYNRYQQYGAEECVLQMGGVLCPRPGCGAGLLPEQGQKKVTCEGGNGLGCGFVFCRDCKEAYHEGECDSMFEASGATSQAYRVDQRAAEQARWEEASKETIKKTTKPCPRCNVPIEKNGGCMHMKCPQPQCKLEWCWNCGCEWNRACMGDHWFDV
# UniProt O35889: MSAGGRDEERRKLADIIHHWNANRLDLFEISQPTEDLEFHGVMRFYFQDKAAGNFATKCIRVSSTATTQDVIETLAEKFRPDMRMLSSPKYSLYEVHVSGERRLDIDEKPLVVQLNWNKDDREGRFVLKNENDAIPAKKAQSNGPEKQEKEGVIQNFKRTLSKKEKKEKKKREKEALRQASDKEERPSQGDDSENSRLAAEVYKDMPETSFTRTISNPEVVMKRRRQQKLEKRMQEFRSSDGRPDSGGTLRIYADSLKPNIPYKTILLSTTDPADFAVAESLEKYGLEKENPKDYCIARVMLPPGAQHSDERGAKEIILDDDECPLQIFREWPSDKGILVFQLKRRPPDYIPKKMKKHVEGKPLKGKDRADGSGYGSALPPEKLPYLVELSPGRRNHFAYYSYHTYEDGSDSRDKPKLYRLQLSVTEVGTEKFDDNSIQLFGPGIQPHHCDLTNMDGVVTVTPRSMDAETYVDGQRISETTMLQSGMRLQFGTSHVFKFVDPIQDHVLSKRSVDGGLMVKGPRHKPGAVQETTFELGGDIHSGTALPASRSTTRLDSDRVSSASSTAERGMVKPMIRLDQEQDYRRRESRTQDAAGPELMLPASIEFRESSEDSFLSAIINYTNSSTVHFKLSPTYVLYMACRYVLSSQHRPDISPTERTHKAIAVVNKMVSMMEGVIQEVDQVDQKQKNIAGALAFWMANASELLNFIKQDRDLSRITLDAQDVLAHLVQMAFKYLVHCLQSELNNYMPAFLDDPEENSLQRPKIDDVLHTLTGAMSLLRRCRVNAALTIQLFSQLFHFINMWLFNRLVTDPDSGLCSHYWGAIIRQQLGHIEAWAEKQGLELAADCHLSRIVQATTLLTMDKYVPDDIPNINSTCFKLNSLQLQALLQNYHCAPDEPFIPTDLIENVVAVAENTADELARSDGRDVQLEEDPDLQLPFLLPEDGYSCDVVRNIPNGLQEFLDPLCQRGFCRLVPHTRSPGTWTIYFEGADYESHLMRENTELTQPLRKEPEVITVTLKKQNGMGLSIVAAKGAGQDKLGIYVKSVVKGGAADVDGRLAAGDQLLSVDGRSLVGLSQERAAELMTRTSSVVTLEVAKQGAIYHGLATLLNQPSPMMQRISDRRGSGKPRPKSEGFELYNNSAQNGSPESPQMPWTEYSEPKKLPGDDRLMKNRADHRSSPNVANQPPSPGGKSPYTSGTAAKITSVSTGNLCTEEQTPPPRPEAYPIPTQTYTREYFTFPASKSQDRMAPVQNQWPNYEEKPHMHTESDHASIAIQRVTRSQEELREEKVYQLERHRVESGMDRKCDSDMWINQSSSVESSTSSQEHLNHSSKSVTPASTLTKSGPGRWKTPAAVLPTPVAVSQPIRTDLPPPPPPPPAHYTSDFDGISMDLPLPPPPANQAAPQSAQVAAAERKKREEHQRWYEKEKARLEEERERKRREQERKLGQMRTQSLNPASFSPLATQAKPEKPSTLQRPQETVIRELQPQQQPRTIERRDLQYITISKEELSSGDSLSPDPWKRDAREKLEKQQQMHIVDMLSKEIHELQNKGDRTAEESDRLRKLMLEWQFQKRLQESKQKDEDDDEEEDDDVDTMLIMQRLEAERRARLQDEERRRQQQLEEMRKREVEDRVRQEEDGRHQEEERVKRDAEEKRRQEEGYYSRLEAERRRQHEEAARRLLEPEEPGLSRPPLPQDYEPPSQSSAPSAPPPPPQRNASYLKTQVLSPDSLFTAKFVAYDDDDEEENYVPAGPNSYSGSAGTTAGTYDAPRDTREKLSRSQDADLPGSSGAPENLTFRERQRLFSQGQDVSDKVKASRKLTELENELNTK
# No constants are given. Whether binding was seen depends on the method and setting. In cells and extracts the contact can be indirect. Some binding calls cover weakened binding; strength is not graded here. For some of these results: Sequences can lack the tags named with a protein.
# Key:
# GST-FKBP12 = GST-FKBP12 (UniProt P62942); assay: pull-down; GST-fusion protein (5 μg/ml) coupled to glutathione-agarose, incubated with clarified lysate of transfected HEK293 cells for 1 h at 4°C; 50 mM Tris pH 7.4, 140 mM NaCl, 0.5% Triton X-100, 1% DOC; washes with 500 mM NaCl; anti-HA blot; only the target purified
# [1] = molecular target: T1, GST-AF-6 (amino acids 849-1190), encompassing the AF-6 PDZ domain (UniProt P55196); assay: as above
# T1 sequence: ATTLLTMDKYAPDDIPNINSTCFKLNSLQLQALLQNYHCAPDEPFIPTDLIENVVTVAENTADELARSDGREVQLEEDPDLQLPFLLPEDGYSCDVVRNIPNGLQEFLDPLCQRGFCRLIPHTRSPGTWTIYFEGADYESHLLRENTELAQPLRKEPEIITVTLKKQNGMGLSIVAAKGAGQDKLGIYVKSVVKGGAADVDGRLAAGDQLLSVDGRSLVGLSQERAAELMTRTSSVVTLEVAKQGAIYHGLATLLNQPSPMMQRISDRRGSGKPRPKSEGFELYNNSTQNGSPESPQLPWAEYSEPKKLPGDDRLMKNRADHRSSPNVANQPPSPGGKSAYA
# HA-parkin (wild-type) = HA-parkin (wild-type) (UniProt O60260); assay: co-IP; HEK293 cells co-transfected; anti-HA coupled to protein G beads, 4 h; 50 mM Tris pH 7.4, 140 mM NaCl, 1% Triton X-100, 1% DOC, 0.1% SDS; washes with 500 mM NaCl; anti-myc blot
# [2] = molecular target: endogenous parkin (rat brain) (rat (endogenous in rat brain)) (UniProt Q9JK66); assay: co-IP; rat brain homogenate (2 mg/ml), anti-parkin antibody on protein G beads, 7 h; 50 mM Tris pH 7.4, 140 mM NaCl, 1% DOC, 1% NP-40, 0.1% SDS; washes with 500 mM NaCl; anti-AF-6 blot; control IgG
substance,measurement,setting,value
HA-parkin (wild-type) (from UniProt O60260 1-465) (enzyme),binding,GST-FKBP12,no binding (tested: 5 μg/ml GST-fusion protein)
same,binding,[1],binds
myc-FKBP12 (from UniProt P62942 1-108),binding,HA-parkin (wild-type),no binding
endogenous AF-6 (rat brain) (from UniProt O35889 1-1829),binding,[2],binds
